Reference: patent publication US20090203877A1, “X-RAY-DENSE CONJUGATE” (Eberhard-Karls-Universitaet Tuebingen Universitaetsklinkum, priority 2006, published 2009)
Entries after “also recorded” stand apart in the source; their conditions may differ. For some of these results: Part of at least one peptide drawing is inferred or uncertain, most often the ends. Some entries share one result that the patent states for a list of compounds.

Key:
[1] = system: human malignant U373 glioma cells; assay: Uptake/staining of cells by FITC-labelled conjugates (fluorescence microscopy, CLSM, FACS, semi-thin sections); format: cell-based; settings: 26 μM
Protocol: Fluorescence was measured in a Becton Dickinson FACSCalibur. […] The investigations were performed in triplicate.
For CT and FACS human U373 glioma cells were grown under the same conditions in 75 cm^2 culture flasks (Corning Costar, Bodenheim, Germany) (70% confluency). Accutase™ (PAA laboratories, Pasching, Austria) was added to achieve detachment of the cells which were harvested and subsequently aliquoted into Eppendorf tubes (6×10^6 cells per tube). As in the investigations performed by fluorescence microscopy, the cells in the first tube served as a control (PBS only). The cells in the other tubes were incubated with 260 μM Ultravist, 260 μM TIBA in PBS and 26 μM, 260 μM and 2.6 mM conjugates 1-4 in PBS. After a 20 minute incubation period at 37° C. in an atmosphere of 5% CO2, the cells were washed three times in PBS and centrifuged at 800 rpm for 5 minutes.
The FACS analysis was performed as described under 1.4.
(§1) The human malignant U373 and LN18 glioma cells were cultivated in 75 cm^2 culture flasks (Corning Costar) (70% confluency) under the conditions as described under 1.4, detached from the flask bottom with Accutase™ (PAA Laboratories) and in the following distributed on Eppendorf tubes (Eppendorf, Hamburg, Germany) (6×10^6 per tube). The cells in the first tube serve as a control (only PBS buffer only). The cells in the other ten tubes were each incubated with benzoic acid (BA), monoiodobenzoic acid (MIBA) or diiodobenzoic acid (DIBA) alone (260 μM), conjugate 3 alone (260 μM), conjugate 3 plus either BA, MIBA or DIBA (260 μM), respectively, and the conjugates 9, 10, and 11 alone. (260 μM).
(§2) After an incubation of 20 minutes at 37° C./5% CO2 the cells were washed three times with PBS buffer and centrifuged at 800 rpm (rounds per minute) for 5 minutes. The fluorescence was measured in Becton Dickinson FACSCalibur as described under 1.4. The computer tomography was performed as described under 1.5.1. The examinations were repeated two times.
For the CT and FACS examinations human LN-18 and U373 glioma cells were cultivated in 75 cm^2 culture flasks (Corning Costar) (70% confluency) (conditions as described under 1.4). Accutase™ (PAA Laboratories) was added to detach the cells from the bottom of the culture flasks. The cells were collected and then distributed on Eppendorf tubes (6×10^6 cells per tube). The cells in the first two tubes serve as a control (in each case only PBS, LN18 and U373 glioma cells, native). The cells in the other tubes (in each case LN18 and U373 glioma cells) were incubated with a 260 μM or 2.6 mM solution of the conjugate 12 for 20 minutes at 37° C. and 5% CO2 and in the following washed for three times with PBS buffer and centrifuged for 5 minutes with 800 rpm (rounds per minute). For a small amount of the cells it was tested by the MMT test (see 1.4) how many of the cells were still viable. The computer tomography of the cell centrifuges was performed with the Somatom Sensation 16 (Siemens).
(§3) The FACS analysis was performed as described under 1.4. The assay was repeated two times.
For the CT and FACS examinations human LN18 and U373 glioma cells were cultivated in 75 cm^2 culture flasks (70% confluency) (conditions as described under section 1). Accutase™ (PAA Laboratories) was added to detach the cell from the culture bottom. The cells were collected and then distributed on Eppendorf-tubes (6×10^6 cells per tube). […] The next three tubes were used for the coincubation of the cells either with trichlorobenzoic acid (TCBA), trifluorobenzoic acid (TFBA) or tribromophenyl Isocyanat (TBPI) and the NLS-FITC-conjugate 3 (260 μM). As control cells were used which were only either incubated with CIBA, FIBA, TBPI (in each case 260 μM in PBS) or with PBS-buffer (native control) alone. […] The computer tomography and FACS analysis of the cell centrifuges were performed as described in 1.5.1 or 1.4, respectively for three times. […]

[2] = system: human malignant LN18 glioma cells; assay: Uptake/staining of cells by FITC-labelled conjugates (CLSM, FACS, semi-thin sections); format: cell-based; settings: 260 μM; for strongly stained cells, FACS (FIG. 9): cell line not stated in the legend (U373 and LN18 in method)
Protocol: as §1
as §2, with “times. […]” for “times.”
as §3
For the CT and FACS examinations human LN18 and U373 glioma cells were cultivated in 75 cm^2 culture flasks (70% confluency) (conditions as described under section 1). Accutase™ (PAA Laboratories) was added to detach the cell from the culture bottom. The cells were collected and then distributed on Eppendorf-tubes (6×10^6 cells per tube). […] The next three tubes were used for the coincubation of the cells either with trichlorobenzoic acid (TCBA), trifluorobenzoic acid (TFBA) or tribromophenyl Isocyanat (TBPI) and the NLS-FITC-conjugate 3 (260 μM). As control cells were used which were only either incubated with CIBA, FIBA, TBPI (in each case 260 μM in PBS) or with PBS-buffer (native control) alone. […] The computer tomography and FACS analysis of the cell centrifuges were performed as described in 1.5.1 or 1.4, respectively for three times.
All measurements were performed on living cells.
All measurements were performed on living cells in triplicates.
A part of the cells which were stained for the FACS analysis, was fixed by paraformaldehyl with 2% Agar, dehydrogenized in ethanol, embedded in Lowicryl K4M (Polysciences, Eppelheim, Germany) and according to the information of the manufacturer UV-polymerised at room temperature. Semi-thin sections (about 0.4 μm) were cut and evaluated by means of fluorescence microscopy.

[3] = system: human malignant LN18 glioma cells; assay: Cell viability / cell death (annexin-V-Alexa 568 binding, propidium iodide, FACS scatter morphology); format: cell-based; settings: 260 μM, 20 min, substance alone
Protocol: All measurements were performed on living, non-fixed cells. […] All measurements were performed on living cells. […] All measurements were performed on living cells in triplicates. […] All measurements were performed on living cells.

[4] = molecular target: T1, matrixmetalloprotease 2 (MMP-2) (Homo sapiens, UniProt P08253); assay: Cleavage test (conjugate 16), HPLC; format: biochemical
T1 construct: purchased Calbiochem, Bad Soden, Germany
T1 sequence (P08253 110-660): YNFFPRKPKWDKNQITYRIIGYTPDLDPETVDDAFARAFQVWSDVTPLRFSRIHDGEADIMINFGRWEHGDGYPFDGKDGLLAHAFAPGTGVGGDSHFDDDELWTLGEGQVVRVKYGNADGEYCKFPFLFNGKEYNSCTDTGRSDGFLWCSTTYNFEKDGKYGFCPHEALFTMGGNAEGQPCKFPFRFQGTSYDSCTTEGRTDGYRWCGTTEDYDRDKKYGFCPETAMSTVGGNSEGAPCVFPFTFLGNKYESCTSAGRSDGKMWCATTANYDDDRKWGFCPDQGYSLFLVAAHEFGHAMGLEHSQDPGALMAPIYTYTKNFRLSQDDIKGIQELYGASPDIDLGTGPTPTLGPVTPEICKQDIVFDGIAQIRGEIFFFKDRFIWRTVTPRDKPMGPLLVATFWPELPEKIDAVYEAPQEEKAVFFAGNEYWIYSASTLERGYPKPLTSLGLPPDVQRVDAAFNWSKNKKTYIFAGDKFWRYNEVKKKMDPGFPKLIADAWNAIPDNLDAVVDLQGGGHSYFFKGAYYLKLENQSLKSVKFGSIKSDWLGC

U373 glioma cells [5] = assay: Tumor cell specificity of conjugate 16: staining of nuclei with inhibited MMP-2 (CLSM, FACS); format: cell-based, human; settings: 130 μM, APMA containing medium with MMP-2 inhibitor
LN18 glioma cells [6] = assay: Tumor cell specificity of conjugate 16: staining of nuclei with active or inhibited MMP-2 (CLSM, FACS); format: cell-based, human; settings: for staining of the nuclei (CLSM, FACS): 130 μM
LN18 glioma cells [7] = assay: Tumor cell specificity of conjugate 16: computer tomography of cell centrifugates; format: cell-based, human
LN18 glioma cells [8] = assay: Tumor cell specificity of conjugate 16: cell viability (MTT, propidium iodide); format: cell-based, human; settings: 130 μM, with MMP-2 inhibitor
U373 glioma cells [9] = assay: as above; format: cell-based, human; settings: 130 μM, with MMP-2 inhibitor

For “PKKKRKVK(FITC)GGK(TIBA) (FITC, GGK linker, TIBA) [conjugate 1, FITC-labelled correct NLS of the SV 40 T antigen with TIBA]”, the “percentage of cells with cytoplasmatic and nuclear staining” value ([1]; fluorescence microscopy, CLSM and FACS) was “up to 22%”.
`CC(C)[C@H](NC(=O)[C@H](CCCCN)NC(=O)[C@H](CCCNC(=N)N)NC(=O)[C@H](CCCCN)NC(=O)[C@H](CCCCN)NC(=O)[C@H](CCCCN)NC(=O)[C@@H]1CCCN1)C(=O)N[C@@H](CCCCNC(=S)Nc1ccc2c(c1)C(=O)OC21c2ccc(O)cc2Oc2cc(O)ccc21)C(=O)NCC(=O)NCC(=O)N[C@@H](CCCCNC(=O)c1ccc(I)cc1)C(N)=O` [conjugate 10, PKKKRKVK(FITC)GGK(MIBA)] was tested, and the heavily stained cells ([2]; FIGS. 8, 13-16) was “up to 70%”, the “strongly stained cells, FACS (FIG. 9)” value [2] was “over 80%” and the “cell death / vitality (annexin-V-Alexa 568, propidium iodide)” value [3] was “high percentage of cells with signs of cell death; also recorded: high cell death rate”.
`CC(C)C[C@H](NC(=O)[C@@H]1CCCN1C(=O)[C@H](CCCCNC(=O)c1cc(I)cc(I)c1I)NC(=O)CNC(=O)CNC(=O)[C@H](CCCCNC(=S)Nc1ccc2c(c1)C(=O)OC21c2ccc(O)cc2Oc2cc(O)ccc21)NC(=O)[C@@H](NC(=O)[C@H](CCCCN)NC(=O)[C@H](CCCNC(=N)N)NC(=O)[C@H](CCCCN)NC(=O)[C@H](CCCCN)NC(=O)[C@H](CCCCN)NC(=O)[C@@H]1CCCN1)C(C)C)C(=O)NCC(=O)N[C@H](C(=O)N[C@@H](CCCNC(=N)N)C(=O)N[C@@H](CCCCNC(=O)c1cc(I)cc(I)c1I)C(N)=O)C(C)C` [conjugate 16, PKKKRKVK(FITC)GGK(TIBA)PLGVRK(TIBA)] was tested, and the “cleavage of the conjugate (HPLC)” value ([4]; active MMP-2 or MMP-2 proform activated by APMA, 2 hours) was “separates after the cleavage into two components”, the “cleavage of the conjugate (HPLC)” value ([4]; active MMP-2 or MMP-2 proform activated by APMA, 2 hours, listed as K16) was “is cleaved” and the “cleavage of the conjugate (HPLC)” value ([4]; in the presence of the MMP-2 inhibitor) was “cleavage could be prevented”. The “staining of the nuclei (CLSM, FACS)” value (U373 glioma cells [5]) was “few stained nuclei”, the “staining of the nuclei (CLSM, FACS)” value (LN18 glioma cells [6]; APMA containing medium with MMP-2 inhibitor) was “few stained nuclei” and the “staining of the nuclei (CLSM, FACS)” value (LN18 glioma cells [6]; APMA containing medium without inhibitor (active MMP-2)) was “only stained by the cleaved conjugate after the action of activated MMP-2; also recorded: strong increase of the staining of the nuclei”. For the same compound, the “cell staining, FACS histogram” value (LN18 glioma cells [6]; 65 and 260 μM, active versus inactive MMP-2) was “stained clearly stronger”, the CT signal density (LN18 glioma cells [7]; 130 μM, medium without inhibitor) was “heavy increase of the signal density” and the “CT signal density in comparison with the untreated control” value (LN18 glioma cells [7]; inhibitor containing medium (13 and 130 μM)) was “only a small increase of the signal density”. The cell viability (LN18 glioma cells [8]) was “remain viable” and the cell viability (U373 glioma cells [9]) was “remain viable”.
With `CC(C)[C@H](NC(=O)[C@H](CCCCN)NC(=O)[C@H](CCCNC(=N)N)NC(=O)[C@H](CCCCN)NC(=O)[C@H](CCCCN)NC(=O)[C@H](CCCCN)NC(=O)[C@@H]1CCCN1)C(=O)N[C@@H](CCCCNC(=S)Nc1ccc2c(c1)C(=O)OC21c2ccc(O)cc2Oc2cc(O)ccc21)C(=O)NCC(=O)NCC(=O)N[C@@H](CCCCNC(=O)c1cc(I)ccc1I)C(N)=O` [conjugate 11, PKKKRKVK(FITC)GGK(DIBA)] the “nuclear staining of cells (CLSM), in words” value ([2]; 20 min) was “did not result in a further increase”, the “strongly stained cells, FACS (FIG. 9)” value [2] was “over 80%” and the “cell death / vitality (annexin-V-Alexa 568, propidium iodide)” value [3] was “high percentage of cells with signs of cell death”.
For “PKKKRKVK(FITC)GGK (FITC, GGK linker) [conjugate 3, FITC-labelled correct NLS of the SV 40 T antigen without TIBA]”, the “number of stained cells” value ([1]; conjugates lacking TIBA, 260 μM and 2.6 mM) was “up to 13%”.
